# Results: PubChem BioAssay AID192 (DTP/NCI, 2004)
# The list shows only some results of the screen, not a fair sample: it is rich in T/C values a quarter to a half above the control, in often repeated tests (any T/C) and in doses without a T/C. Further doses and runs are listed elsewhere. T/C is the treated group as % of the vehicle group. Some doses have a count of surviving animals in place of a T/C: the source files T/C as zero there, which appears to mark a toxic dose or a test without result, not a measured value. Some survivor counts are full or nearly so, which does not show that the dose was tolerated: survival well below the control is almost never listed, so the zero probably covers shortened survival too. Counts of survivors are from the toxicity check (mostly the fifth day) where no day follows; animals may have died later. Schedule codes are those of the source, taken here to give the interval after Q, in days (D) or hours (H), and the number of doses after X. Some entries were tested several times; the values are given in rising order. Additions like (4×) stand for listed records that agree. Where survival is the endpoint, this PubChem deposit counts one and a half times the control or more as active, and values a quarter to a half above the control carry no call in these data; other NCI protocols may use other cut-offs. Numbered stars: 1 amine (or outer) side, 2 acyl side, 3 side chain; on linkers, the order of the positions; unused ones are H or OH. Bridge positions count the residues as written; N and C are the ends. Square brackets hold non-standard residues; d marks the D form. Peptide text beside a SMILES is read from it. I, II: the chains in the order shown. ξ: configuration not given here. Actinocin(9to1) = Cc1c2oc3c(C)ccc(C(=O)[*:1])c3nc-2c(C(=O)[*:2])c(N)c1=O; ξPro(4ξ-Me) = CC1CNC(C(=O)O)C1; NMeV = CN[CH](C(=O)O)C(C)C; Sar = CNCC(=O)O
# Test system: BDF1 mice, B16 melanoma ip, median survival T/C
# Assay: NCI In Vivo Anticancer Drug Screen. Data for tumor model B16 Melanoma (intraperitoneal) in B6D2F1 (BDF1) mice
# Settings: T/C endpoint: median survival time, higher T/C = longer survival
# Procedure, shortened: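 Survival or tumor size is measured after treatment of tumor-bearing mice and normalised to the vehicle-treated control group.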
# [1] = dose: 100.0 mg/kg/injection, schedule: Q01DX009 (ip), vehicle: Klucel (hydroxypropylcellulose) (HPC)
# [2] = dose: 200.0 mg/kg/injection, schedule: Q01DX009 (ip), vehicle: Klucel (hydroxypropylcellulose) (HPC)
# [3] = dose: 400.0 mg/kg/injection, schedule: Q01DX009 (ip), vehicle: Klucel (hydroxypropylcellulose) (HPC)
# [4] = dose: 200.0 mg/kg/injection, schedule: Q01DX009 (ip), vehicle: saline with Tween-80
# [5] = dose: 12.5 mg/kg/injection, schedule: Q01DX009 (ip), vehicle: saline with Tween-80
# [6] = dose: 50.0 mg/kg/injection, schedule: Q01DX009 (ip), vehicle: saline with Tween-80
# [7] = dose: 100.0 mg/kg/injection, schedule: Q01DX009 (ip), vehicle: saline with Tween-80
# [8] = dose: 400.0 mg/kg/injection, schedule: Q01DX009 (ip), vehicle: saline with Tween-80
structure (smiles),measurement,setting,value
Cc1c2cc[n+](C)cc2c(C)c2c1[nH]c1ccc(O)cc12,T/C,"dose: 0.13 mg/kg/injection, schedule: Q01DX009 (ip), vehicle: water",125 % of control
same,survivor count,"dose: 0.5 mg/kg/injection, schedule: Q01DX009 (ip), vehicle: water",10 of 10
same,survivor count,"dose: 1.0 mg/kg/injection, schedule: Q01DX009 (ip), vehicle: water",9 of 10
same,survivor count,"dose: 2.0 mg/kg/injection, schedule: Q01DX009 (ip), vehicle: water",10 of 10
O=C1N(Br)C(=O)C(c2ccc(Cl)cc2)(c2ccc(Cl)cc2)N1Br,survivor count,"dose: 50.0 mg/kg/injection, schedule: Q01DX009 (ip), vehicle: Klucel (hydroxypropylcellulose) (HPC)",10 of 10
same,survivor count,[1],10 of 10
same,survivor count,[2],0 of 10
COC(=O)C1C2CC3c4[nH]c5cc(OC)ccc5c4CCN3CC2CC(OC(=O)c2cc(OC)c(OC)c(OC)c2)C1OC (centres undefined),survivor count,[1],0 of 10
same,survivor count,[2],0 of 10
same,survivor count,[3],0 of 10
C=COCCCCCC(C)C,survivor count,[2],10 of 10
same,survivor count,[3],9 of 10
O=c1c2cccc3cccc(c32)c2nc3ccccc3n12,survivor count,"dose: 10.0 mg/kg/injection, schedule: Q01DX009 (ip), vehicle: saline with Tween-80",9 of 10
same,survivor count,"dose: 20.0 mg/kg/injection, schedule: Q01DX009 (ip), vehicle: saline with Tween-80",9 of 10
NC(Cc1cc([N+](=O)[O-])ccc1CN(CCCl)CCCl)C(=O)O (centres undefined),survivor count,"dose: 25.0 mg/kg/injection, schedule: Q01DX001 (ip), vehicle: Klucel (hydroxypropylcellulose) (HPC)",10 of 10
N#Cc1ccc(Br)cc1[N+](=O)[O-],survivor count,"dose: 1.56 mg/kg/injection, schedule: Q01DX009 (ip), vehicle: Klucel (hydroxypropylcellulose) (HPC)",10 of 10
same,survivor count,"dose: 3.13 mg/kg/injection, schedule: Q01DX009 (ip), vehicle: Klucel (hydroxypropylcellulose) (HPC)",10 of 10
same,survivor count,"dose: 6.25 mg/kg/injection, schedule: Q01DX009 (ip), vehicle: Klucel (hydroxypropylcellulose) (HPC)",10 of 10
COC1/C=C\C=C(/C)C(=O)Nc2cc3nc4ccc(Br)cc4oc-3c(c2=O)CC(C)CC(OC)C(O)C(C)/C=C(\C)C1OC(N)=O (centres undefined),survivor count,"dose: 12.5 mg/kg/injection, schedule: Q01DX005 (ip), vehicle: other",0 of 6
same,survivor count,"dose: 25.0 mg/kg/injection, schedule: Q01DX005 (ip), vehicle: other",0 of 6
same,survivor count,"dose: 50.0 mg/kg/injection, schedule: Q01DX005 (ip), vehicle: other",0 of 6
same,survivor count,"dose: 100.0 mg/kg/injection, schedule: Q01DX005 (ip), vehicle: other",0 of 6
same,survivor count,"dose: 200.0 mg/kg/injection, schedule: Q01DX005 (ip), vehicle: other",0 of 6
"Cc1c2oc3c(C)ccc(C(=O)NC4C(=O)NC(C(C)C)C(=O)N5CC(C)CC5C(=O)N(C)CC(=O)N(C)C(C(C)C)C(=O)OC4C)c3nc-2c(C(=O)NC2C(=O)NC(C(C)C)C(=O)N3CC(C)CC3C(=O)N(C)CC(=O)N(C)C(C(C)C)C(=O)OC2C)c(N)c1=O (centres undefined) (I: TV[ξPro(4ξ-Me)][Sar][NMeV] / II: TV[ξPro(4ξ-Me)][Sar][NMeV]; ester I:1-I:C, II:1-II:C; linker I:N-II:N via Actinocin(9to1); configuration not given here)",T/C,"dose: 1.3 mg/kg/injection, schedule: Q04DX003 (ip), vehicle: saline + alcohol",138 % of control
same,T/C,"dose: 1.94 mg/kg/injection, schedule: Q04DX003 (ip), vehicle: saline + alcohol",138 % of control
same,T/C,"dose: 2.16 mg/kg/injection, schedule: Q04DX003 (ip), vehicle: saline + alcohol",138 % of control
same,survivor count,"dose: 6.0 mg/kg/injection, schedule: Q04DX003 (ip), vehicle: saline + alcohol",4 of 7
Nc1nccnc1N,survivor count,[4],3 of 6
CC1(C)OCC(CO)(Nc2nc(N3CC3)nc(N3CC3)n2)CO1,T/C,"dose: 0.62 mg/kg/injection, schedule: Q01DX009 (ip), vehicle: saline","106, 119, 121, 123 % of control"
same,T/C,"dose: 1.25 mg/kg/injection, schedule: Q01DX009 (ip), vehicle: saline","114, 140, 162 % of control (2×)"
same,T/C,"dose: 2.5 mg/kg/injection, schedule: Q01DX009 (ip), vehicle: saline","137, 138, 170, 194 % of control"
same,survivor count,"dose: 5.0 mg/kg/injection, schedule: Q01DX009 (ip), vehicle: saline",9 of 10 and 10 of 10 (2×)
same,survivor count,"dose: 10.0 mg/kg/injection, schedule: Q01DX009 (ip), vehicle: saline",7 of 10 and 10 of 10
CC1(C)N=C(N)N=C(N)N1c1cccc(CCC(=O)Nc2ccc(S(=O)(=O)F)cc2)c1,T/C,"dose: 15.0 mg/kg/injection, schedule: Q01DX009 (ip), vehicle: saline with Tween-80",126 % of control
C=C(C)C1CCC2(C=O)CCC3(C)C(CCC4C5(C)CCC(O)C(C)(C)C5CCC43C)C12 (centres undefined),survivor count,"dose: 37.5 mg/kg/injection, schedule: Q01DX009 (ip), vehicle: Klucel (hydroxypropylcellulose) (HPC)",10 of 10
CCCCCCCCCCCCCCCCCC(=O)Nc1ccn(C2OC(CO)C(O)C2O)c(=O)n1 (centres undefined),T/C,"dose: 6.25 mg/kg/injection, schedule: Q01DX009 (ip), vehicle: saline with Tween-80",125 and 133 % of control
same,T/C,[5],138 % of control
same,survivor count,[6],10 of 10
same,survivor count,[7],10 of 10
same,survivor count,[4],10 of 10
Cc1cc(Cc2cc(C)c(C)c(C)c2C)c(C)c(C)c1C,survivor count,[5],10 of 10
same,survivor count,"dose: 25.0 mg/kg/injection, schedule: Q01DX009 (ip), vehicle: saline with Tween-80",10 of 10
same,survivor count,[6],10 of 10
same,survivor count,[7],9 of 10
CC(C)C1(c2ccsc2)NC(=O)NC1=O (centres undefined),survivor count,[3],0 of 10
CC(C)(C)OC(=O)n1cnc(CC(NC(=O)OCc2ccccc2)C(=O)O)c1 (centres undefined),survivor count,[8],10 of 10
CC(C)C(Br)C(=O)NCC(=O)NCC(=O)O (centres undefined),survivor count,[7],10 of 10
COc1ccc2c(c1[N+](=O)[O-])CC[C@@H]1[C@@H]2CC[C@]2(C)C(=O)CC[C@@H]12,survivor count,[4],10 of 10
same,survivor count,[8],10 of 10
same,survivor count,"dose: 800.0 mg/kg/injection, schedule: Q01DX009 (ip), vehicle: saline with Tween-80",10 of 10
O=C(Nc1cccc(Cl)c1)ON1C(=O)C2C(C1=O)C1(Cl)C(Cl)C(Cl)C2(Cl)C1(Cl)Cl (centres undefined),survivor count,[6],9 of 10
same,survivor count,[7],10 of 10
same,survivor count,[4],10 of 10
O=C1NC(=O)C(=Cc2cc3c(cc2Br)OCO3)C(=O)N1,survivor count,[7],9 of 10 and 10 of 10
same,survivor count,[4],9 of 10
same,survivor count,[8],3 of 10
N#CSc1ccc(S(N)(=O)=O)cc1,survivor count,"dose: 25.0 mg/kg/injection, schedule: Q01DX009 (ip), vehicle: Klucel (hydroxypropylcellulose) (HPC)",0 of 10
FC(F)(F)c1ccc2c(c1)N(CCCN1CCN(CCOCCCl)CC1)c1ccccc1S2,survivor count,"dose: 1.17 mg/kg/injection, schedule: Q04DX003 (ip), vehicle: saline",10 of 10
same,survivor count,"dose: 3.12 mg/kg/injection, schedule: Q01DX009 (ip), vehicle: saline",10 of 10
CCCCCCCCCC(=O)N(C)OC,survivor count,"dose: 100.0 mg/kg/injection, schedule: Q04DX003 (ip), vehicle: saline with Tween-80",10 of 10
same,survivor count,"dose: 200.0 mg/kg/injection, schedule: Q04DX003 (ip), vehicle: saline with Tween-80",10 of 10
same,survivor count,"dose: 400.0 mg/kg/injection, schedule: Q04DX003 (ip), vehicle: saline with Tween-80",10 of 10
O=c1ssc(=Nc2ccccc2)n1-c1ccccc1,survivor count,[3],10 of 10
C[CH2][Sn]([F])([CH2]C)[CH2]C,survivor count,"dose: 6.0 mg/kg/injection, schedule: Q01DX009 (ip), vehicle: saline with Tween-80",7 of 10
